Laboratory results from patent US20230374127A1 (LG CHEM, published 2023).
Results are given in words; binding and its absence hold for the method and conditions named. Some binding calls cover weakened binding; strength is not graded here.

The chains behind the UniProt entries cited, without tags or fusion partners. Residues count along the entry.
UniProt Q8NHL6, residues 24-650: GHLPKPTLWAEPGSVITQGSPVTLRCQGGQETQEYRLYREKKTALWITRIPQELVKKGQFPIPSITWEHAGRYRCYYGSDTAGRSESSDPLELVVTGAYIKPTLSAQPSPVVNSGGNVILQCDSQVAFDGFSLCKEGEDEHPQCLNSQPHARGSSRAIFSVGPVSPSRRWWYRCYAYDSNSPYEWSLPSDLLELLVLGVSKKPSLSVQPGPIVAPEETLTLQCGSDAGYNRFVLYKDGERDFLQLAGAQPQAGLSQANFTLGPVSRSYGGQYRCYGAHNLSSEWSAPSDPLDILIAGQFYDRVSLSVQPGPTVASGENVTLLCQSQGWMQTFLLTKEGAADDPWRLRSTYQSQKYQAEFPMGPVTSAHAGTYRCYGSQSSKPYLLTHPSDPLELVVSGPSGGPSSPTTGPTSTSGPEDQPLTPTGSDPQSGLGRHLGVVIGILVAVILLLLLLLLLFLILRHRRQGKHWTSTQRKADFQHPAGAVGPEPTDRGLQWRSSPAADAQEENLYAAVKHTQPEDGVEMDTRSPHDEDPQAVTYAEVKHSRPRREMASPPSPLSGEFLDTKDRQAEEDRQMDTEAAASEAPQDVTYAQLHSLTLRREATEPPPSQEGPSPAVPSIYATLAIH

Legend:
[1] = target: LILRB1 on CHO cells overexpressing LILRB1 (UniProt Q8NHL6); experiment: flow cytometry on CHO cells overexpressing LILRB1, antibody at 10 ug/mL
[2] = target: LILRB1 on CHO cells overexpressing LILRB1 (UniProt Q8NHL6); experiment: flow cytometry (iQue screener) on LILRB1 overexpressing CHO cells, antibody at 10 ug/mL, anti-human Fc-biotin and streptavidin PE

B1: anti-LILRB1 antibody No. 10 (antibody, human IgG4 S228P, kappa, F234A L235A, V domains shown)
VH: QVQLVQSGAEVKKPGSSVKVSCKASGGTFSSHYMHWVRQAPGQGLEWMGWISPYLGSTNYAQKFQGRVTITADESTSTAYMELSSLRSEDTAVYYCARDETGSTYGAFDYWGQGTLVTVSS
VL: DIQMTQSPSSLSASVGDRVTITCRASQSISNYLNWYQQKPGKAPKLLIYAASNLQSGVPSRFSGSGSGTDFTLTISSLQPEDFATYYCQQSYSFPFTFGQGTKVEIKR
notes: Human IgG4 / kappa, expressed in ExpiCHO-S cells; also called clone 10
B1 was tested. Which binding [1] did it give?
Its binding is “binds”.

What about the binding [2] of the same binder?
The binding was “binds”.
